Measurements reported in US20230192830A1.
Results are given in words; binding and its absence hold for the method and conditions named. Some entries that bind do so weakly or less than the wild type.

Amino acid sequences for entries named in this document (tags omitted). A change or cut given only in a name is not applied to a line headed by its entry.
UniProt P10636: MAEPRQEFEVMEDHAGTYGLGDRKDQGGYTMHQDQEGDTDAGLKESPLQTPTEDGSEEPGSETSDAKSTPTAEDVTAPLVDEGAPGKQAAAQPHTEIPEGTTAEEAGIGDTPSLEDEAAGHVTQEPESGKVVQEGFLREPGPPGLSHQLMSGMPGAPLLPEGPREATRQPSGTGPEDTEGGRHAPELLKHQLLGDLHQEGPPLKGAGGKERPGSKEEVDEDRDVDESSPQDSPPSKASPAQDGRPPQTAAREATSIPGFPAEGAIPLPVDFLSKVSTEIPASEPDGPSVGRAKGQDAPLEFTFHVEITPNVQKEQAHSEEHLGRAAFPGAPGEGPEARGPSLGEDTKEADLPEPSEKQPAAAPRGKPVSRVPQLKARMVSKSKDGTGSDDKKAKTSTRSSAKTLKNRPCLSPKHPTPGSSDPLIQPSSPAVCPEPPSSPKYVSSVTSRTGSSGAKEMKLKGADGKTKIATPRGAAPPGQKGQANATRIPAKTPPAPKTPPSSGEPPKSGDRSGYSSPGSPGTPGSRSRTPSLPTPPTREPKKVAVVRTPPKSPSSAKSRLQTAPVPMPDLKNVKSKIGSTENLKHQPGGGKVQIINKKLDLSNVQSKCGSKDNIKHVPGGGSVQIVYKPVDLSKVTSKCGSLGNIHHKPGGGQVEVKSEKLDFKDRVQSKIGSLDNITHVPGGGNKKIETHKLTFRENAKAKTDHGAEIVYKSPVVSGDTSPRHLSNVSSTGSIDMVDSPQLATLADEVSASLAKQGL

Molecular target: pathological tau in human Alzheimer's Disease (AD) brain tissue sections (human) (UniProt P10636)
Experiment: IHC, cryo AD brain sections; non-AD sections graded +/++

- binding: binds
B1: V0030 (antibody, mouse IgG1, V domains shown)
VH: QVQLQQPGTELVKPGASVKLSCKASGYTFTSYWMHWVKQRPGQGLEWIGNIYPSNGGTNYNEKFKNKATLTVDKSSSTASMQLSSLTSEDSAVYYCARSSVVARDYAMDYWGQGTSVTVSS
VL: DVLMTQTPLSLPVSLGDQASISCRSSQNIVHSNGNTYLEWYLQKPGQSPKLLIYKVSNRFSGVPDRFSGSGSGTDFTLKISRVEAEDLGVYYCFQGSHVPYTFGGGTKLEIK
